Four molecules from paper PMC11733159 can be followed below.

The target in test [1] is T1, S100A8 (endogenous, THP-1) (human (endogenous in THP-1)) (UniProt P05109).
T1 sequence: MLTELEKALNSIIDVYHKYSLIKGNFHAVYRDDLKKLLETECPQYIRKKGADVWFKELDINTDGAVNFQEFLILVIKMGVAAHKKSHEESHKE
The test is described as follows: co-IP; total THP-1 cell lysates (endogenous proteins) immunoprecipitated with anti-RNF128 or anti-S100A8 antibodies; western blot.

In another test the target is T2, S100A8-GFP (human) (UniProt P05109).
T2 sequence: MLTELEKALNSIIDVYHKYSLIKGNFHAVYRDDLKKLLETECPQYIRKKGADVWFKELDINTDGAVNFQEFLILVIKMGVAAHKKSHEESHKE
The test is described as follows: co-IP; 293T (printed 239T) cells co-transfected with Flag- and GFP-tagged constructs for 48 h; total lysates immunoprecipitated with anti-Flag or anti-GFP antibodies; western blot. On the technique in general: A western blot detects proteins with antibodies after separation by electrophoresis.

In test [2] the target is T3, S100A8-GFP_(1-46) (human) (UniProt P05109).
T3 sequence: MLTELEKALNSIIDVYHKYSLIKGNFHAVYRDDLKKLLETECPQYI
The test is described as above.

Test [3] has as its target T4, RNF128 (endogenous, THP-1) (human (endogenous in THP-1)) (UniProt Q8TEB7).
T4 sequence: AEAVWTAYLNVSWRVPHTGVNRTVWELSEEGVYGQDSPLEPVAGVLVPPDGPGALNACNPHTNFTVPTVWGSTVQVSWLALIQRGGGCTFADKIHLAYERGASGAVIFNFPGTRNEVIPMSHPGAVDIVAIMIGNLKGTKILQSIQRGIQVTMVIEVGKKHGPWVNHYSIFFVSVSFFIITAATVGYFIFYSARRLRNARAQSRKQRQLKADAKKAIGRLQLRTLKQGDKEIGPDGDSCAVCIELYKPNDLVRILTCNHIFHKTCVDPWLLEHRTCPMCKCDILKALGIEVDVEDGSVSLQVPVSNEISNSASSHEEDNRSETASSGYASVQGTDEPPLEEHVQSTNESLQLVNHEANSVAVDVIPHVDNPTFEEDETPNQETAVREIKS
Kind of test: co-IP; total THP-1 cell lysates (endogenous proteins) immunoprecipitated with anti-RNF128 or anti-S100A8 antibodies; western blot.

Test [4] has as its target T5, RNF128-Flag (in 293T cells) (human) (UniProt Q8TEB7).
T5 sequence: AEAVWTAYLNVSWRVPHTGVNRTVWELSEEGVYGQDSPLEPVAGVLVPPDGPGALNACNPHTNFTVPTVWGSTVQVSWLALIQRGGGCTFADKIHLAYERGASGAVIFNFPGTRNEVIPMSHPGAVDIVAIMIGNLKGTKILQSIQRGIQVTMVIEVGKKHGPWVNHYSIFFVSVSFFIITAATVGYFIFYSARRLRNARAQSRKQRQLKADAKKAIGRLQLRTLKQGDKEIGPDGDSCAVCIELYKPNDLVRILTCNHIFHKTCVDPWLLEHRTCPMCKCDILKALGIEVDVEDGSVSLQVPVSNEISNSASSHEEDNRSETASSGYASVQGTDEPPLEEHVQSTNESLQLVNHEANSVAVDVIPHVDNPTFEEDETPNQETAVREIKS
Kind of test: co-IP; 293T (printed 239T) cells co-transfected with Flag- and GFP-tagged constructs for 48 h; total lysates immunoprecipitated with anti-Flag or anti-GFP antibodies; western blot.

Test [5] deals with T6, RNF128-Flag_(277-428) (human) (UniProt Q8TEB7).
T6 sequence: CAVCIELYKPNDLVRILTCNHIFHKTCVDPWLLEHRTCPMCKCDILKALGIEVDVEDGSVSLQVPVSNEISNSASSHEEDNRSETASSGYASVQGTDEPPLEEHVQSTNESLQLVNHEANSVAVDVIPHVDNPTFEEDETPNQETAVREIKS
The test is described as above.

These are yes or no findings as the source states them, for the method shown. Binding seen in cells or lysates may run through a third protein. Some entries that bind do so weakly or less than the wild type. For part of these data: Where a sequence is shown, tags or fusion partners need not be part of it.

B1: RNF128 (endogenous, THP-1) (enzyme, UniProt Q8TEB7 39-428)
chain: AEAVWTAYLNVSWRVPHTGVNRTVWELSEEGVYGQDSPLEPVAGVLVPPDGPGALNACNPHTNFTVPTVWGSTVQVSWLALIQRGGGCTFADKIHLAYERGASGAVIFNFPGTRNEVIPMSHPGAVDIVAIMIGNLKGTKILQSIQRGIQVTMVIEVGKKHGPWVNHYSIFFVSVSFFIITAATVGYFIFYSARRLRNARAQSRKQRQLKADAKKAIGRLQLRTLKQGDKEIGPDGDSCAVCIELYKPNDLVRILTCNHIFHKTCVDPWLLEHRTCPMCKCDILKALGIEVDVEDGSVSLQVPVSNEISNSASSHEEDNRSETASSGYASVQGTDEPPLEEHVQSTNESLQLVNHEANSVAVDVIPHVDNPTFEEDETPNQETAVREIKS
As for B1, in test [1], the binding entry is recorded as “binds”.

B2: RNF128-Flag (in 293T cells) (enzyme, UniProt Q8TEB7 39-428)
chain: AEAVWTAYLNVSWRVPHTGVNRTVWELSEEGVYGQDSPLEPVAGVLVPPDGPGALNACNPHTNFTVPTVWGSTVQVSWLALIQRGGGCTFADKIHLAYERGASGAVIFNFPGTRNEVIPMSHPGAVDIVAIMIGNLKGTKILQSIQRGIQVTMVIEVGKKHGPWVNHYSIFFVSVSFFIITAATVGYFIFYSARRLRNARAQSRKQRQLKADAKKAIGRLQLRTLKQGDKEIGPDGDSCAVCIELYKPNDLVRILTCNHIFHKTCVDPWLLEHRTCPMCKCDILKALGIEVDVEDGSVSLQVPVSNEISNSASSHEEDNRSETASSGYASVQGTDEPPLEEHVQSTNESLQLVNHEANSVAVDVIPHVDNPTFEEDETPNQETAVREIKS
As to B2, the binding entry (with S100A8-GFP (human); in test [2]) was “binds” each time.

B3: S100A8 (endogenous, THP-1) (protein, UniProt P05109 1-93)
chain: MLTELEKALNSIIDVYHKYSLIKGNFHAVYRDDLKKLLETECPQYIRKKGADVWFKELDINTDGAVNFQEFLILVIKMGVAAHKKSHEESHKE
In the case of B3, the binding entry in test [3] is on record as “binds”.

B4: S100A8-GFP (protein, UniProt P05109 1-93)
chain: MLTELEKALNSIIDVYHKYSLIKGNFHAVYRDDLKKLLETECPQYIRKKGADVWFKELDINTDGAVNFQEFLILVIKMGVAAHKKSHEESHKE
Consider B4, for which the binding entry in test [4] and in test [5] was “binds” in each case.
